# Literature values as cited in publication PMC11213733, “Computational approaches identify a transcriptomic fingerprint of drug-induced structural cardiotoxicity” (Cell Biology and Toxicology, 2024).
# Where a name gives a salt, the structure may show the parent alone.
# Conditions: ref FDA label, cited from earlier work
smiles,measurement,setting,value
CCCCc1oc2ccccc2c1C(=O)c1cc(I)c(OCCN(CC)CC)c(I)c1 [Amiodarone HCl],Structural cardiotoxin?,FDA label references heart failure or a decrease in left ventricular ejection fraction,Y
same,Functional cardiotoxin?,compound annotation,Y
